Laboratory results: the supplement of paper PMC8728848
Some of the results follow.

Tests used:
Assay in all cases: glycan array binding signal (z-score within array); higher = stronger binding
Conditions in all cases: glycan notation: IUPAC condensed, linker removed
[1] = biological target: Neu5Ac(a2-3)Gal(b1-3)GlcNAc(b1-6)GalNAc
How it was run: (§1)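 Columns mapping to the same glycan were averaged after glycan names were converted to IUPAC-condensed notation. The data come from 3228 arrays in the Consortium for Functional Glycomics database, limited to those with an available protein sequence. Binding is reported as a within-array Z-score averaged across arrays of one protein sequence and across linkers.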

[2] = biological target: Neu5Ac(a2-3)Gal(b1-3)GlcNAc6S
How it was run: as §1

[3] = biological target: Neu5Ac(a2-3)Gal(b1-3)[Fuc(a1-4)]GlcNAc
How it was run: as §1

[4] = biological target: Neu5Ac(a2-3)Gal(b1-3)[Fuc(a1-4)]GlcNAc(b1-3)Gal(b1-3)[Fuc(a1-4)]GlcNAc
How it was run: as §1

[5] = biological target: Neu5Ac(a2-3)Gal(b1-3)[Fuc(a1-4)]GlcNAc(b1-3)Gal(b1-4)[Fuc(a1-3)]GlcNAc
How it was run: as §1

[6] = biological target: Neu5Ac(a2-3)Gal(b1-3)[GlcNAc(b1-6)]GalNAc
How it was run: as §1

[7] = biological target: Neu5Ac(a2-3)Gal(b1-3)[Neu5Ac(a2-6)]GalNAc
How it was run: as §1

[8] = biological target: Neu5Ac(a2-3)Gal(b1-3)[Neu5Ac(a2-6)]GlcNAc(b1-3)[Fuc(a1-3)[Gal(b1-4)]GlcNAc(b1-6)]Gal(b1-4)Glc
How it was run: as §1

[9] = biological target: Neu5Ac(a2-3)Gal(b1-3)]Neu5Ac(a2-3)Gal(b1-4)]GlcNAc
How it was run: as §1

[10] = biological target: Neu5Ac(a2-3)Gal(b1-4)Glc
How it was run: as §1

[11] = biological target: Neu5Ac(a2-3)Gal(b1-4)GlcNAc
How it was run: as §1

[12] = biological target: Neu5Ac(a2-3)Gal(b1-4)GlcNAc(b1-2)Man
How it was run: as §1

[13] = biological target: Neu5Ac(a2-3)Gal(b1-4)GlcNAc(b1-2)Man(a1-3)[GlcNAc(b1-4)][Neu5Ac(a2-3)Gal(b1-4)GlcNAc(b1-2)Man(a1-6)]Man(b1-4)GlcNAc(b1-4)GlcNAc
How it was run: as §1

[14] = biological target: Neu5Ac(a2-3)Gal(b1-4)GlcNAc(b1-2)Man(a1-3)[Neu5Ac(a2-3)Gal(b1-4)GlcNAc(b1-2)Man(a1-6)]Man(b1-4)GlcNAc(b1-4)GlcNAc
How it was run: as §1

[15] = biological target: Neu5Ac(a2-3)Gal(b1-4)GlcNAc(b1-2)Man(a1-3)[Neu5Ac(a2-3)Gal(b1-4)GlcNAc(b1-2)Man(a1-6)]Man(b1-4)GlcNAc(b1-4)[Fuc(a1-6)]GlcNAc
How it was run: as §1

[16] = biological target: Neu5Ac(a2-3)Gal(b1-4)GlcNAc(b1-2)Man(a1-3)[Neu5Ac(a2-6)Gal(b1-4)GlcNAc(b1-2)Man(a1-6)]Man(b1-4)GlcNAc(b1-4)GlcNAc
How it was run: as §1

[17] = biological target: Neu5Ac(a2-3)Gal(b1-4)GlcNAc(b1-2)[Neu5Ac(a2-3)Gal(b1-4)GlcNAc(b1-4)]Man(a1-3)[GlcNAc(b1-4)][Neu5Ac(a2-3)Gal(b1-4)GlcNAc(b1-2)[Neu5Ac(a2-3)Gal(b1-4)GlcNAc(b1-6)]Man(a1-6)]Man(b1-4)GlcNAc(b1-4)GlcNAc
How it was run: as §1

[18] = biological target: Neu5Ac(a2-3)Gal(b1-4)GlcNAc(b1-2)[Neu5Ac(a2-3)Gal(b1-4)GlcNAc(b1-4)]Man(a1-3)[GlcNAc(b1-4)][Neu5Ac(a2-3)Gal(b1-4)GlcNAc(b1-4)Man(a1-6)]Man(b1-4)GlcNAc(b1-4)GlcNAc
How it was run: as §1

[19] = biological target: Neu5Ac(a2-3)Gal(b1-4)GlcNAc(b1-2)[Neu5Ac(a2-3)Gal(b1-4)GlcNAc(b1-6)]Man(a1-6)[Neu5Ac(a2-3)Gal(b1-4)GlcNAc(b1-2)Man(a1-3)][GlcNAc(b1-4)]Man(b1-4)GlcNAc(b1-4)GlcNAc
How it was run: as §1

[20] = biological target: Neu5Ac(a2-3)Gal(b1-4)GlcNAc(b1-3)Gal
How it was run: as §1

[21] = biological target: Neu5Ac(a2-3)Gal(b1-4)GlcNAc(b1-3)Gal(b1-3)GlcNAc
How it was run: as §1

[22] = biological target: Neu5Ac(a2-3)Gal(b1-4)GlcNAc(b1-3)Gal(b1-4)GlcNAc
How it was run: as §1

B1: CBP21 (Serratia marcescens), O83009 (protein)
chain: MNKTSRTLLSLGLLSAAMFGVSQQANAHGYVESPASRAYQCKLQLNTQCGSVQYEPQSVEGLKGFPQAGPADGHIASADKSTFFELDQQTPTRWNKLNLKTGPNSFTWKLTARHSTTSWRYFITKPNWDASQPLTRASFDLTPFCQFNDGGAIPAAQVTHQCNIPADRSGSHVILAVWDIADTANAFYQAIDVNLSK
glycan array binding signal (z-score) [1]: 0.458
glycan array binding signal (z-score) [2]: -0.561
glycan array binding signal (z-score) [3]: -0.089
glycan array binding signal (z-score) [4]: -0.38
glycan array binding signal (z-score) [5]: 0.252
glycan array binding signal (z-score) [6]: 1.23
glycan array binding signal (z-score) [7]: -0.61
glycan array binding signal (z-score) [8]: 0.826
glycan array binding signal (z-score) [9]: 1.37
glycan array binding signal (z-score) [10]: -0.718
glycan array binding signal (z-score) [11]: 0.215
glycan array binding signal (z-score) [12]: 1.5
glycan array binding signal (z-score) [13]: -0.507
glycan array binding signal (z-score) [14]: -0.395
glycan array binding signal (z-score) [15]: -0.858
glycan array binding signal (z-score) [16]: -1.35
glycan array binding signal (z-score) [17]: -0.28
glycan array binding signal (z-score) [18]: 0.246
glycan array binding signal (z-score) [19]: -0.87
glycan array binding signal (z-score) [20]: -0.019
glycan array binding signal (z-score) [21]: -1.13
glycan array binding signal (z-score) [22]: 0.432
